PubChem BioAssay AID493246 | Drosophila RNAi Screening Center, 2011

Assay: 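Identify essential fly genes by loss of cell viability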 (primary screen)
Cells: Drosophila Kc and S2R+ cells
Reagents: long dsRNA against Drosophila genes
Read-out: 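Cell number per well after knock-down, printed as raw plate values; calls were based on per-plate z-scores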
Reading the numbers: Kc cell number and S2R+ cell number: higher = more cells remaining
Call rule: 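Active when the per-plate z-score of cell number is 3 or more in the direction of fewer cells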
The screen tested about 21,000 reagents; shown is an unselected part of those with a known target gene and a result. Over the whole deposit, 429 (2%) were called active. 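Values are raw and not normalised between plates; calls rest on per-plate z-scores that were not deposited.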 Entries without a mark were called inactive. Reagents against one gene are numbered here. Not given: the amount of reagent, the time to read-out.

| gene | reagent | Kc cell number, rep 1 | Kc cell number, rep 2 | S2R+ cell number, rep 1 | S2R+ cell number, rep 2 |
| --- | --- | --- | --- | --- | --- |
| CG12991 | 1 | 1.49e6 | 1.48e6 | 1.02e6 | 1.14e6 |
| CG3918 | 1 | 2.40e5 (active) | – | 5.03e5 | – |
| l(3)07882 (lethal (3) 07882) | 1 | 1.47e6 | 1.60e6 | 1.15e6 | 1.22e6 |
| CG13775 | 1 | 1.76e6 | 1.83e6 | 1.31e6 | 1.47e6 |
| LManV (Lysosomal alpha-mannosidase V) | 1 | 1.22e6 | 1.18e6 | 9.87e5 | 7.51e5 |
| CG31191 | 1 | 1.50e6 | 1.52e6 | 1.07e6 | 9.91e5 |
| CG31191 | 2 | 1.18e6 | 1.15e6 | 1.10e6 | 1.23e6 |
| CG31191 | 3 | 1.53e6 | 1.50e6 | 8.66e5 | 9.88e5 |
| CG15533 | 1 | 1.49e6 | 1.51e6 | 9.75e5 | 1.08e6 |
| CG10845 | 1 | 1.58e6 | 1.55e6 | 9.46e5 | 1.03e6 |
| CG14069 | 1 | 1.57e6 | 1.62e6 | 1.18e6 | 1.29e6 |
| Ugt35B1 (UDP-glycosyltransferase family 35 member B1) | 1 | 1.55e6 | 1.63e6 | 1.39e6 | 1.45e6 |
| CG8128 | 1 | 5.83e5 | – | 9.41e5 | – |
| CG14418 | 1 | 1.67e6 | 1.70e6 | 8.90e5 | 1.06e6 |
| CG3529 | 1 | 1.36e6 | 1.46e6 | 1.15e6 | 1.12e6 |
| CG13972 | 1 | 1.52e6 | 1.52e6 | 9.82e5 | 1.14e6 |

Continued (2 carried over from the part before).
| gene | reagent | Kc cell number, rep 1 | Kc cell number, rep 2 | S2R+ cell number, rep 1 | S2R+ cell number, rep 2 |
| --- | --- | --- | --- | --- | --- |
| CG3529 | 1 | 1.36e6 | 1.46e6 | 1.15e6 | 1.12e6 |
| CG13972 | 1 | 1.52e6 | 1.52e6 | 9.82e5 | 1.14e6 |
| zpg (zero population growth) | 1 | 1.33e6 | 1.42e6 | 1.19e6 | 1.19e6 |
| Cnep1r1 (CTD nuclear envelope phosphatase 1 regulatory subunit 1) | 1 | 1.66e6 | 1.47e6 | 1.07e6 | 1.21e6 |
| CG4409 | 1 | 1.53e6 | 1.56e6 | 1.12e6 | 1.27e6 |
| CG7778 | 1 | 1.41e6 | 1.40e6 | 7.37e5 | 9.85e5 |
| CG11050 | 1 | 1.18e6 | 1.29e6 | 4.55e5 | 4.25e5 |
| Fs (Follistatin) | 1 | 1.35e6 | 1.41e6 | 1.02e6 | 1.01e6 |
| Fs (Follistatin) | 2 | 1.56e6 | 1.62e6 | 1.17e6 | 1.36e6 |
| CG6465 | 1 | 1.58e6 | 1.66e6 | 1.42e6 | 1.52e6 |
